## Screening data

By UniProt entry, the sequences of proteins in these tests, tags left out.
UniProt P04637, whole entry, target on record: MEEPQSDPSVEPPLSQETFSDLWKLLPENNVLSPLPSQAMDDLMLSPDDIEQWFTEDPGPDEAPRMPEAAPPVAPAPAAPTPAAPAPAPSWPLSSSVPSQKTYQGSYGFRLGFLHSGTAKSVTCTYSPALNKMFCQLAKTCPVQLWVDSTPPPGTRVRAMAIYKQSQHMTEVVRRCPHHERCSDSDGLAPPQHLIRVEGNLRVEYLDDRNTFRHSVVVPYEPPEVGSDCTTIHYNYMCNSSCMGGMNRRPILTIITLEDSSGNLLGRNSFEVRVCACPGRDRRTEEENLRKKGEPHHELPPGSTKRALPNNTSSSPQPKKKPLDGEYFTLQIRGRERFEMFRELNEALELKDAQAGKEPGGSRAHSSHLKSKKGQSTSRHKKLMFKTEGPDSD

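NCI-H358 cells carrying N-terminally eGFP-tagged delta133p53alpha, with eGFP fluorescence read at 24 hours and fitted across a concentration series.
The dilution series runs from about 7.7e-06 to 290 µM in 23 concentration columns.
Potency, read at half-maximal effect from the fitted activation curve; lower values mean a more potent compound.
Calls follow the dose-curve shape: a well-fitted activation curve with a large enough effect is active, and small, poorly fitted or top-dose-only effects are inconclusive.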

Values are in µM.
Every entry below has the call inconclusive.
Only part of the assay is shown, chiefly results filed as inconclusive.
Potencies fitted to partial, single-point or poorly fitting curves are rough.
Some entries filed as inconclusive have a full curve.

| compound | potency (µM) | curve |
|---|---|---|
| `CC(C)(C)c1ccc(S(=O)(=O)/C=C/C#N)cc1` | 37.93 | activator, single point |
| `C[C@@]1(C(=O)Nc2ccc(F)nc2)CCCN1c1nc(Nc2cc(C3CC3)[nH]n2)c2cccn2n1` | 21.33 | activator, single point |
| `C[C@@H]1COC(Nc2ccc3ncnc(Nc4ccc(OCc5nccs5)c(Cl)c4)c3c2)=N1` | 15.34 | activator, partial curve, poor fit |
| `C=C1C(=O)O[C@@H]2C[C@]3(C)[C@@H](CCC(C)O)[C@@H]3C[C@H]12` (stereo not given in full) | 8.492 | activator, partial curve |
| `C[C@@H]1[C@H](O)[C@@H]2OC(=O)C3=C2[C@H](CCC3)[C@@]12C[C@@H](c1ccoc1)OC2=O` | 2.625 | activator, single point |
| `Cc1ccc(F)c(NC(=O)Nc2ccc(-c3cccc4[nH]nc(N)c34)cc2)c1` | 38.54 | activator, single point |
| `CCCCCCCCn1cc(CN(CC)CC)c2cc(-c3cnc(N)nc3)ccc21` | 37.93 | activator, single point |
| `O=S(=O)(Nc1ccccn1)c1ccc(N=Cc2c(O)[nH]c3ccc4ncsc4c23)cc1` | 6.922 | activator, single point |
| `Cc1cc(C(=O)NOCCO)c(Nc2ccc(I)cc2F)n(C)c1=O` | 1.534 | activator, partial curve, poor fit |
| `COc1cc2c(cc1O)C(c1ccc(O)cc1)C(C)C(C)C2` (stereo not given) | 15.1 | activator, partial curve, poor fit |
| `N#CSc1cc(SC#N)c(N)nc1N` | 7.187 | activator, single point |
| `COc1cc2c(NC3CCN(C(C)C)CC3)nc(C3CCCCC3)nc2cc1OCCCN1CCCC1` | 26.85 | activator, partial curve, poor fit |
| `C=CC(=O)Nc1ccc2ncnc(Nc3cccc(Br)c3)c2c1` | 0.3013 | activator, full curve, poor fit |
| `COc1nc2ccc(Br)cc2cc1[C@@H](c1ccccc1)[C@@](O)(CCN(C)C)c1cccc2ccccc12` | 19.01 | activator, partial curve, poor fit |
| `O=c1[nH]c(=O)c2[nH]c(=O)[nH]c2[nH]1` | 7.958 | activator, single point |
| `CS(=O)(=O)CCNCc1ccc(-c2ccc3ncnc(Nc4ccc(OCc5cccc(F)c5)c(Cl)c4)c3c2)o1` | 0.8627 | activator, full curve, poor fit |
| `CC1=CC2=C(C)C(=O)[C@](C)(O)[C@H](O)C2=CO1` | 0.8492 | activator, partial curve, poor fit |
| `O=S1(=O)CCN(Cc2cc(NCC3CCOCC3)c3[nH]c(-c4ccccc4)cc3c2)CC1` | 0.8492 | activator, full curve, poor fit |
| `Cc1[nH]c2ccccc2c1CCNCc1ccc(/C=C/C(=O)NO)cc1` | 30.13 | activator, single point |
| `Cc1cc(C)cc(C(=O)NOCCCCCC(=O)NO)c1` | 2.686 | activator, partial curve, poor fit |
| `O=c1cc(-c2ccccc2F)[nH]c2cc3c(cc12)OCO3` | 2.393 | activator, partial curve, poor fit |
| `C=C1c2cccc(O)c2C(O)=C2C(=O)[C@]3(O)C(O)=C(C(N)=O)C(=O)[C@@H](N(C)C)[C@@H]3[C@@H](O)[C@H]12` | 6.922 | activator, partial curve, poor fit |
| `CC(=O)CC(=O)Nc1ccc(Cl)c(C(F)(F)F)c1` | 6.746 | activator, single point |
| `C[N+]1(CCCCC[N+]2(C)CCCC2)CCCC1` | 37.93 | activator, single point |
| `c1cn2cc(-c3ccc4cn[nH]c4c3)nc(Nc3ccc(N4CCOCC4)cc3)c2n1` | 4.776 | activator, full curve |
| `O=C([C@@H]1CCCN(c2ccc3[nH]c(C4(n5cc(Cl)cn5)CC4)nc3n2)C1)N1CCCC1` | 23.93 | activator, partial curve, poor fit |
| `Cc1cc2c(C(C)C)c(O)c(O)c(C=O)c2c(O)c1-c1c(C)cc2c(C(C)C)c(O)c(O)c(C=O)c2c1O` | 37.93 | activator, single point |
| `CCN(CC)CCCC(C)Nc1c2ccc(Cl)cc2nc2ccc(OC)cc12` (stereo not given) | 37.93 | activator, single point |
| `O=C(c1ccc(F)c(F)c1Nc1ccc(I)cc1F)N1CC(O)([C@@H]2CCCCN2)C1` | 33.81 | activator, single point |
| `O=C1CCc2ccc(OCCCCN3CCN(c4cccc(Cl)c4Cl)CC3)cc2N1` | 38.93 | activator, single point |
| `Cc1cc(Nc2cc(N3CCN(C)CC3)nc(Sc3ccc(NC(=O)C4CC4)cc3)n2)n[nH]1` | 19.01 | activator, partial curve |
| `Cc1nn(C)c(COc2ccc(N3CCN(S(=O)(=O)N(C)C)CC3)cc2)c1-c1cccc2c(CCCOc3cccc4ccccc34)c(C(=O)O)n(CCN3CCOCC3)c12` | 26.85 | activator, single point |
| `Cc1ccc(C(=O)Nc2ccc(Oc3cc4cnn(C)c4cc3-c3cn[nH]c3)c(F)c2)c(=O)n1-c1ccc(F)cc1` | 43.13 | activator, single point |
| `COc1cc(F)c(F)c(Nc2ccc(I)cc2F)c1NS(=O)(=O)C1(C[C@H](O)CO)CC1` | 37.93 | activator, single point |
| `Nc1nccc(-c2c(-c3ccc(F)cc3)ncn2C2CCCCC2)n1` | 13.46 | activator, partial curve |
| `Cc1c(CN2CCN(S(C)(=O)=O)CC2)sc2c(N3CCOCC3)nc(-c3cnc(N)nc3)nc12` | 0.8627 | activator, full curve, poor fit |
| `CC#CC(=O)Nc1ccc2ncnc(Nc3cccc(Br)c3)c2c1` | 13.46 | activator, partial curve, poor fit |
| `N#Cc1cccc(C#N)c1-c1nc2c3ccccc3c3cc(Cl)ccc3c2[nH]1` | 0.0213 | activator, full curve, poor fit |
| `CCOc1cc2c(c(F)c1OCC)C(=N)N(CC(=O)c1cc(N3CCOCC3)c(OC)c(C(C)(C)C)c1)C2` | 26.85 | activator, single point |
| `CCCCS(=N)(=O)CCC(N)C(=O)O` (stereo not given) | 34.35 | activator, single point |
| `CCOC(=O)C1=C(N)Oc2ccc(Br)cc2C1C(C#N)C(=O)OCC` (stereo not given) | 37.93 | activator, single point |
| `COCCCN1CCC(NC(=O)c2cc(Cl)c(N)c3c2OCC3)CC1` | 27.56 | activator, single point |
| `O=C(CCCCCCNC(=O)c1cnc(N(c2ccccc2)c2ccccc2)nc1)NO` | 5.358 | activator, full curve, poor fit |
| `COc1cc(O)ccc1OCCNCC(O)COc1cccc2[nH]c3ccccc3c12` (stereo not given) | 37.93 | activator, single point |
| `CNC1CCC(N(Cc2cccc(-c3ccncc3)c2)C(=O)c2sc3c(F)ccc(F)c3c2Cl)CC1` (stereo not given) | 43.24 | activator, single point |
| `O=NN(CCCl)C(=O)NCCCl` | 0.2189 | activator, full curve, poor fit |
| `CC(C)[C@H]1C(=O)N[C@H](CO)Cc2c[nH]c3cccc(c23)N1C` | 9.68 | activator, full curve, poor fit |
| `COc1cc2ncnc(-n3nc(-c4ccccn4)nc3N)c2cc1OC` | 24.32 | activator, partial curve |
| `COc1cc2ncnc(Nc3ccc(O)c(Br)c3)c2cc1OC` | 43.23 | activator, single point |
| `Cc1cc(C(=O)N2CCN(c3cccc(Cl)c3)CC2)n(-c2ccccc2)n1` | 1.534 | activator, full curve |
| `COC[C@H]1OC(=O)c2coc3c2[C@@]1(C)C1=C(C3=O)C2CCC(=O)[C@@]2(C)C[C@H]1OC(C)=O` (stereo not given in full) | 4.256 | activator, single point |
| `C=C1CCC2C(C)(CO[C@@H]3O[C@H](CO)[C@@H](O)[C@H](O)[C@H]3O)C(O)CCC2(C)C1C(=O)CC1=CCOC1=O` (stereo not given in full) | 18.53 | activator, single point |
| `COc1ccc(NS(=O)(=O)c2sc3ccc(Cl)cc3c2C)cc1N1CCNCC1` | 21.33 | activator, single point |
| `NC1[C@H]2CN(c3nc4c(cc3F)c(=O)c(C(=O)O)cn4-c3ccc(F)cc3F)C[C@@H]12` (stereo not given in full) | 37.93 | activator, single point |
| `CO[C@H]1C[C@@H]2CC[C@@H](C)[C@@](O)(O2)C(=O)C(=O)N2CCCC[C@@H]2C(=O)O[C@H]([C@@H](C)C[C@@H]2CC[C@H](O)[C@H](OC)C2)CC(=O)[C@H](C)C=C(C)[C@@H](O)[C@@H](OC)C(=O)[C@H](C)C[C@H](C)C=CC=CC=C1C` | 21.67 | activator, partial curve |
| `O=C(Nc1ccc(OC(F)(F)F)cc1)c1sccc1NCc1ccnc2ccccc12` | 30.13 | activator, single point |
| `COc1ccc(-c2nc(N3CCOCC3)c3sc(CN(C)c4ncc(C(=O)NO)cn4)cc3n2)cn1` | 3.433 | activator, full curve, poor fit |
| `CCOC(=O)C1=C(O)C(=O)N(Cc2ccccc2)C1` | 0.6108 | activator, full curve, poor fit |

The last 7 entries again:

- C=C1CCC2C(C)(CO[C@@H]3O[C@H](CO)[C@@H](O)[C@H](O)[C@H]3O)C(O)CCC2(C)C1C(=O)CC1=CCOC1=O (stereo not given in full) | potency 18.53 µM (activator, single point)
- COc1ccc(NS(=O)(=O)c2sc3ccc(Cl)cc3c2C)cc1N1CCNCC1 | potency 21.33 µM (activator, single point)
- NC1[C@H]2CN(c3nc4c(cc3F)c(=O)c(C(=O)O)cn4-c3ccc(F)cc3F)C[C@@H]12 (stereo not given in full) | potency 37.93 µM (activator, single point)
- CO[C@H]1C[C@@H]2CC[C@@H](C)[C@@](O)(O2)C(=O)C(=O)N2CCCC[C@@H]2C(=O)O[C@H]([C@@H](C)C[C@@H]2CC[C@H](O)[C@H](OC)C2)CC(=O)[C@H](C)C=C(C)[C@@H](O)[C@@H](OC)C(=O)[C@H](C)C[C@H](C)C=CC=CC=C1C | potency 21.67 µM (activator, partial curve)
- O=C(Nc1ccc(OC(F)(F)F)cc1)c1sccc1NCc1ccnc2ccccc12 | potency 30.13 µM (activator, single point)
- COc1ccc(-c2nc(N3CCOCC3)c3sc(CN(C)c4ncc(C(=O)NO)cn4)cc3n2)cn1 | potency 3.433 µM (activator, full curve, poor fit)
- CCOC(=O)C1=C(O)C(=O)N(Cc2ccccc2)C1 | potency 0.6108 µM (activator, full curve, poor fit)

Data taken from PubChem BioAssay AID2060322, deposited by NCATS (2025).